Experimental data reported in article PMC11898301.
Substitutions are numbered along the chain they refer to. These are yes or no findings as the source states them, for the method shown. In cells and extracts the contact can be indirect. Some results given as binding are weak or reduced against the parent protein; the word gives no strength. Where a sequence is shown, tags or fusion partners need not be part of it.

Chains of the proteins cited; added tags and fusions are not shown.
UniProt Q969H0: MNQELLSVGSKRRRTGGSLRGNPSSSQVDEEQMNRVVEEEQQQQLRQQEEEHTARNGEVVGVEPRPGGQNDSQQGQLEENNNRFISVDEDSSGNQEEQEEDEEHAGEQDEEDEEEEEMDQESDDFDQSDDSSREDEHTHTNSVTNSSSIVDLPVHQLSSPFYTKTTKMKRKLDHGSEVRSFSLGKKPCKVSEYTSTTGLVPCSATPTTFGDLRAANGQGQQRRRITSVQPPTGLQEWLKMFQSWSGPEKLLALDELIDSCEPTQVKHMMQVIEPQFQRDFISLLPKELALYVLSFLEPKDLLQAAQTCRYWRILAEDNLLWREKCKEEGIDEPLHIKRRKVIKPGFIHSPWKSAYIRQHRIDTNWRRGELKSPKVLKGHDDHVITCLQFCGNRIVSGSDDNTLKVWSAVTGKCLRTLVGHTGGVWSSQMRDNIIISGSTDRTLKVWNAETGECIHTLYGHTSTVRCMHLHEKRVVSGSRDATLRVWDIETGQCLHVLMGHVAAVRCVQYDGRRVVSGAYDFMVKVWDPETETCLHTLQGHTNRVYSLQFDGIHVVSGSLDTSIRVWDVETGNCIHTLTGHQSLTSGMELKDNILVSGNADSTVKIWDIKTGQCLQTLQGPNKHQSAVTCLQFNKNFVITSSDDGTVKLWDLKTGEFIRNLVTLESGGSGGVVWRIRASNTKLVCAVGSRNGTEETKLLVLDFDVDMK

Legend:
Experiment in all cases: co-IP; 293T cells transfected with HA-PRR11 (WT, fragments or mutants) and Flag-GSK3β or Flag-FBXW7 (WT or mutants); MG132 10 μM for 6 h before collection; IP with HA or Flag antibody, Protein A/G magnetic beads, Western blot; in some panels λ-PPase added to extracts, CHIR-99021, siGSK3β or GSK3β overexpression
[1] = target: T1, HA-PRR11-1A (T287A/S291A) (human) (UniProt Q96HE9)
T1 sequence: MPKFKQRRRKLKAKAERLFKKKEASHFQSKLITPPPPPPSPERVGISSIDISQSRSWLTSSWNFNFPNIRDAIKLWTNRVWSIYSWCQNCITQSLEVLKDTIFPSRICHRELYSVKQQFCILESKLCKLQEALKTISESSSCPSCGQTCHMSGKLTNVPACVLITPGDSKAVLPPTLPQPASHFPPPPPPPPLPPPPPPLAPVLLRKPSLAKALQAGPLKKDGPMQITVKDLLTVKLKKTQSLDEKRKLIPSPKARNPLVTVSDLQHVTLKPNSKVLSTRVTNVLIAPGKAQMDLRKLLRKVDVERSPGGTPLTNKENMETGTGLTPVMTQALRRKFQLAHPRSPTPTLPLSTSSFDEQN

[2] = target: T2, HA-PRR11-1Δ/2Δ (I286_S291del/L325_T330del) (human) (UniProt Q96HE9)
T2 sequence: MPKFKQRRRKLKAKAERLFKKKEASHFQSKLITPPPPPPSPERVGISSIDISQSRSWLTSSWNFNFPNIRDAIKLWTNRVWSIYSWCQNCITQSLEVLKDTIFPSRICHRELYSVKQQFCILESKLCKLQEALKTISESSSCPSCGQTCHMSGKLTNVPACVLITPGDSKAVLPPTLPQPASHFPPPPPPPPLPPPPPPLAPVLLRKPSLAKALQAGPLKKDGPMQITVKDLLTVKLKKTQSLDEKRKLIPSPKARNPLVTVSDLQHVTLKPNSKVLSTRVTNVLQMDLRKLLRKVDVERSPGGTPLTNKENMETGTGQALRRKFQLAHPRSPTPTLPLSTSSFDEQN

[3] = target: T3, HA-PRR11-1Δ (I286_S291del) (human) (UniProt Q96HE9)
T3 sequence: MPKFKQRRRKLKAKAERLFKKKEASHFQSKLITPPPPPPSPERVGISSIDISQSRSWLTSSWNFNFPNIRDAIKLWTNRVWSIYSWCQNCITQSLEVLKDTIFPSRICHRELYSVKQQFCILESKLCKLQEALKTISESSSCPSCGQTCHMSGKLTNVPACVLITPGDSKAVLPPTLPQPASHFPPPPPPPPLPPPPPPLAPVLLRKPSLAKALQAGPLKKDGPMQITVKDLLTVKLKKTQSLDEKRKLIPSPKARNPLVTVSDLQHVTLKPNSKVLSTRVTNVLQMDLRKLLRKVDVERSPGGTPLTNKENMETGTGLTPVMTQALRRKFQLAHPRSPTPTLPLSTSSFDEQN

[4] = target: T4, HA-PRR11-WT (proline-rich 11) (human) (UniProt Q96HE9)
T4 sequence: T1 sequence with A287T, A291S

[5] = target: T5, HA-PRR11-1D (T287D/S291D) (human) (UniProt Q96HE9)
T5 sequence: T1 sequence with A287D, A291D

binding [1]: binds | binding [2]: binds | binding [3]: binds | binding [4]: binds | binding [5]: binds
Substance: Flag-FBXW7 (from UniProt Q969H0 1-707)
